PubChem BioAssay AID1159584 | Peter MacCallum Cancer Centre | 2016

- Aim: 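Genes that CDH1-null MCF10A cells selectively depend on to survive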 (primary screen)
- System: human MCF10A breast epithelial cells, parental and CDH1-null
- Knock-down reagent: siRNA against human genes
- Measurement: 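ATP luminescence (CellTiter-Glo) viability per line relative to mean mock wells over all plates, and the ratio of CDH1-null to parental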
- Direction: CDH1-null / parental viability ratio: higher = CDH1-null cells survive relatively better than parental; CDH1-null viability vs mock: higher = more viable CDH1-null cells
Shown is an unselected part of about 18,000 deposited reagents. Further read-outs or replicates are left out here. Reagent sequences are not shown. The record does not give: the amount of reagent, the time to read-out.

Depletion of CCR6 came out at: CDH1-null / parental viability ratio 0.77; CDH1-null viability vs mock (fraction of mock) = 0.78. Against TESC the deposit lists CDH1-null / parental viability ratio 0.88; CDH1-null viability vs mock (fraction of mock) = 1. Against ATPAF1, the entry reads CDH1-null / parental viability ratio 1.13; CDH1-null viability vs mock (fraction of mock) = 1.15. EGFLAM gave CDH1-null / parental viability ratio 1.07; CDH1-null viability vs mock (fraction of mock) = 0.88. With knock-down of NRCAM the results were CDH1-null / parental viability ratio 1.08; CDH1-null viability vs mock (fraction of mock) = 1.04. Depletion of SLC39A4 gave: CDH1-null / parental viability ratio 1.02; CDH1-null viability vs mock (fraction of mock) = 0.95.

Silencing of BMP8A came out at: CDH1-null / parental viability ratio 1.1; CDH1-null viability vs mock (fraction of mock) = 0.76. RCOR1 scored CDH1-null / parental viability ratio 1.04; CDH1-null viability vs mock (fraction of mock) = 0.73. Against SLC27A5, the values are CDH1-null / parental viability ratio 0.98; CDH1-null viability vs mock (fraction of mock) = 0.84. Silencing of DCLRE1A came out at: CDH1-null / parental viability ratio 0.99; CDH1-null viability vs mock (fraction of mock) = 0.69. Against IGSF9 the deposit lists CDH1-null / parental viability ratio 1.03; CDH1-null viability vs mock (fraction of mock) = 0.8. Depletion of P2RY2 resulted in: CDH1-null / parental viability ratio 1.17; CDH1-null viability vs mock (fraction of mock) = 0.88.

UGT3A2 scored CDH1-null / parental viability ratio 0.96; CDH1-null viability vs mock (fraction of mock) = 0.92. Knock-down of TNFAIP1 resulted in: CDH1-null / parental viability ratio 1.11; CDH1-null viability vs mock (fraction of mock) = 0.93. For GFAP, the values are CDH1-null / parental viability ratio 0.95; CDH1-null viability vs mock (fraction of mock) = 0.86. Against IL13 the deposit lists CDH1-null / parental viability ratio 0.81; CDH1-null viability vs mock (fraction of mock) = 0.34.

Only “CDH1-null viability vs mock (fraction of mock)” (5 entries from above):
IGSF9: 0.8
P2RY2: 0.88
UGT3A2: 0.92
TNFAIP1: 0.93
GFAP: 0.86

The list goes on:
Knock-down of KIAA0408 gave: CDH1-null / parental viability ratio 0.91; CDH1-null viability vs mock (fraction of mock) = 0.9. Silencing of IFT27 came out at: CDH1-null / parental viability ratio 1.18; CDH1-null viability vs mock (fraction of mock) = 1.18. BCOR gave CDH1-null / parental viability ratio 1.04; CDH1-null viability vs mock (fraction of mock) = 0.85. ZDHHC21 gave CDH1-null / parental viability ratio 0.92; CDH1-null viability vs mock (fraction of mock) = 0.94. Knock-down of C1QB resulted in: CDH1-null / parental viability ratio 1.23; CDH1-null viability vs mock (fraction of mock) = 0.74. Knock-down of HOXA3 came out at: CDH1-null / parental viability ratio 1.05; CDH1-null viability vs mock (fraction of mock) = 0.86.

After knock-down of EIF2AK3 the results were CDH1-null / parental viability ratio 1.04; CDH1-null viability vs mock (fraction of mock) = 1. NOP58 scored CDH1-null / parental viability ratio 1.09; CDH1-null viability vs mock (fraction of mock) = 0.5. Knock-down of SERPINE1 gave: CDH1-null / parental viability ratio 1.07; CDH1-null viability vs mock (fraction of mock) = 0.91. FBLN2 showed CDH1-null / parental viability ratio 1.38; CDH1-null viability vs mock (fraction of mock) = 0.76. RAPSN gave CDH1-null / parental viability ratio 1.03; CDH1-null viability vs mock (fraction of mock) = 1.02. Against TRIP10, the entry reads CDH1-null / parental viability ratio 1.16; CDH1-null viability vs mock (fraction of mock) = 0.5.

Silencing of HSPD1 came out at: CDH1-null / parental viability ratio 0.94; CDH1-null viability vs mock (fraction of mock) = 0.94. With knock-down of TXK, the screen gave CDH1-null / parental viability ratio 1.19; CDH1-null viability vs mock (fraction of mock) = 1. Depletion of CDYL2 came out at: CDH1-null / parental viability ratio 1.07; CDH1-null viability vs mock (fraction of mock) = 0.77. For PCSK1, the values are CDH1-null / parental viability ratio 1; CDH1-null viability vs mock (fraction of mock) = 0.53. Depletion of ZNF142 came out at: CDH1-null / parental viability ratio 1.71; CDH1-null viability vs mock (fraction of mock) = 0.65. Against LAMA4, the entry reads CDH1-null / parental viability ratio 1.18; CDH1-null viability vs mock (fraction of mock) = 0.78.

With knock-down of HPSE2, the screen gave CDH1-null / parental viability ratio 0.8; CDH1-null viability vs mock (fraction of mock) = 0.64.
